In the supplement of paper PMC10032668:
± gives the standard deviation of the averaged measurements. This is one part of the list. The list holds hits alone, and they repeat only in part.

Chains of the proteins cited; added tags and fusions are not shown.
KHDRBS1, Q07666, UniProt Q07666, whole entry: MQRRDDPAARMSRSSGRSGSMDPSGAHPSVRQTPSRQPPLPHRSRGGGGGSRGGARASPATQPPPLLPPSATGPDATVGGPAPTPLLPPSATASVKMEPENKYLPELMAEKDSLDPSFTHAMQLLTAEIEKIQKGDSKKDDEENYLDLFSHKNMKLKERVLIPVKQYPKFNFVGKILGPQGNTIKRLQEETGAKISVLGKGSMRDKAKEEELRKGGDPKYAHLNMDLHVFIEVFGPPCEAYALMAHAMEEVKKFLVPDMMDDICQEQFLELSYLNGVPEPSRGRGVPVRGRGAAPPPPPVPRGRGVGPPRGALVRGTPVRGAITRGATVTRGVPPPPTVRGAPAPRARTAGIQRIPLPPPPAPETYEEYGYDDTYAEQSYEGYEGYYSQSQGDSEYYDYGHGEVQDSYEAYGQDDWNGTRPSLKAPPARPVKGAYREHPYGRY
MORF4L1, Q9UBU8, UniProt Q9UBU8, whole entry: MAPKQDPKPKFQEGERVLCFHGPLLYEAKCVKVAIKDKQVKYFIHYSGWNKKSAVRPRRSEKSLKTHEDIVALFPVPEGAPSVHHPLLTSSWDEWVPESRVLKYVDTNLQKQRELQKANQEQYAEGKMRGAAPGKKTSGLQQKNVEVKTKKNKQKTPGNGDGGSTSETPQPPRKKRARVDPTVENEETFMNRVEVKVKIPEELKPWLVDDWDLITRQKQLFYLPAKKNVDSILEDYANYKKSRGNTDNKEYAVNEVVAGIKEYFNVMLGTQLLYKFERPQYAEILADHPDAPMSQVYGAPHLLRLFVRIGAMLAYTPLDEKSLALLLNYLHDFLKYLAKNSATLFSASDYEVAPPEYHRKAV
MORF4L2, Q15014, UniProt Q15014, whole entry: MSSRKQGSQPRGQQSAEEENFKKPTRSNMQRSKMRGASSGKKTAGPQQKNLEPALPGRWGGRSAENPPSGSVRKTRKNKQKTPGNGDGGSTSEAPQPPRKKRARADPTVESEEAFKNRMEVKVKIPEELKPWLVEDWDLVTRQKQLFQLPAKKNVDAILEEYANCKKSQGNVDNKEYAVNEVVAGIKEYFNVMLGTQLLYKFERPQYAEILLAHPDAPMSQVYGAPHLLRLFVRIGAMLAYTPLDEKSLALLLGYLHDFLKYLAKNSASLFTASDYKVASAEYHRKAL
MPG, P29372, UniProt P29372, whole entry: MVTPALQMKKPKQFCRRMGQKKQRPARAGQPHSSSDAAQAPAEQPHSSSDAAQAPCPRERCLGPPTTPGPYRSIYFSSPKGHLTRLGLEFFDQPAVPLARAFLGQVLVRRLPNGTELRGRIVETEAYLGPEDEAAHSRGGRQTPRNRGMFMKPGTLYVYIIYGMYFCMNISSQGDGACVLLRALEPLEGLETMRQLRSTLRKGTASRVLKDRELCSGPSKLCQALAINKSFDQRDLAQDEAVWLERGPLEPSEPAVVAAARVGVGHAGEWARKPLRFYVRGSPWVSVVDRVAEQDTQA
PDLIM7, Q9NR12, UniProt Q9NR12, whole entry: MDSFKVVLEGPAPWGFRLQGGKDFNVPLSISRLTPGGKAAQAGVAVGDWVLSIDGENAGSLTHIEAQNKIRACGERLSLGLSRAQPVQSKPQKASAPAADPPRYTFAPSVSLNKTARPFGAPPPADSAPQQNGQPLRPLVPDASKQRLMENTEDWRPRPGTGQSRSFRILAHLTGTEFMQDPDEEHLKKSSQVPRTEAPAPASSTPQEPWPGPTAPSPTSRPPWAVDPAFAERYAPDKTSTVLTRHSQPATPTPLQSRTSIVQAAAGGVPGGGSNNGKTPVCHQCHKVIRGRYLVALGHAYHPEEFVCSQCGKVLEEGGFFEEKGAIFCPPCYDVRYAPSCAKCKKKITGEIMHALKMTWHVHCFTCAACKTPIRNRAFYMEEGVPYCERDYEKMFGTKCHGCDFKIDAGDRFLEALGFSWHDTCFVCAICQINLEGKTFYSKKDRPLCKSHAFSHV
PIN1, Q13526, UniProt Q13526, whole entry: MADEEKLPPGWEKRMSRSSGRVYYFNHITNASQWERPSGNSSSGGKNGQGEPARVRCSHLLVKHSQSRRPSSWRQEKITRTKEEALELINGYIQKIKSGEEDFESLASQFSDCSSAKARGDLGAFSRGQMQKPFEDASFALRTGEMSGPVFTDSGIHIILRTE
PIN4, Q9Y237, UniProt Q9Y237, whole entry: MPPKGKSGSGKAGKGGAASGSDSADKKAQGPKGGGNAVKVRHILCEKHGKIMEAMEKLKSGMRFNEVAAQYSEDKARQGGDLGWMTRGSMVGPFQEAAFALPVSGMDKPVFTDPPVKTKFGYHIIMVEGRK
PLK1, P53350, UniProt P53350, whole entry: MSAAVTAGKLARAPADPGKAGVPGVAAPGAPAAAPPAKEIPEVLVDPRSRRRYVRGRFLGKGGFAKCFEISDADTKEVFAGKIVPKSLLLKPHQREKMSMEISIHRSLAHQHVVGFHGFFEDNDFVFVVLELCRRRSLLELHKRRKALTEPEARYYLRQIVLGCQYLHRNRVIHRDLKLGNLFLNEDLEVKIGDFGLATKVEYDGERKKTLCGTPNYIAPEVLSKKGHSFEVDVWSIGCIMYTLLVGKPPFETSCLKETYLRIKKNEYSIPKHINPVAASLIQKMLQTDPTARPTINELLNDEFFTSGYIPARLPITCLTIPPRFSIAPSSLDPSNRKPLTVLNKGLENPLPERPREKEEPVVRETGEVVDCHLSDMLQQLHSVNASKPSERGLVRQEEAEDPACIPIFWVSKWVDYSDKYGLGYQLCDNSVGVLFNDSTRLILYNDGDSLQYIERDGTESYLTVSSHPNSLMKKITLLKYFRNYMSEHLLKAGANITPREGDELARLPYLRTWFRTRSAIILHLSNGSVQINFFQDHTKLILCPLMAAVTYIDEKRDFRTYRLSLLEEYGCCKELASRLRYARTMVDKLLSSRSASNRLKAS

What was measured:
Test in all cases: PRISMA enrichment of interactor (LFQ) in peptide spot vs all other peptide spots (log2 fold change); higher = stronger / more specific binding of the interactor to the peptide
[1] = target: KHDRBS1, Q07666
Method: (§1)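 PRISMA: 221 full-length sORF-encoded peptides (3-15 aa), plus SOS1/GLUT1 control peptides, were spot-synthesized on cellulose membranes in triplicate. Membranes were incubated with HEK293T lysate, and bound proteins were identified by LC-MS/MS with LFQ. Enrichment is the log2 fold change versus all other peptide spots; only significant interactors are listed (cutoff c=6, x0=2.8).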

[2] = target: KIF2C, Q99661
Method: as §1

[3] = target: KIFC1, Q9BW19
Method: as §1

[4] = target: LSM14A, Q8ND56
Method: as §1

[5] = target: LSM14B, Q9BX40
Method: as §1

[6] = target: MACF1
Method: as §1

[7] = target: MAP4, P27816
Method: as §1

[8] = target: MAP7D1, Q3KQU3
Method: as §1

[9] = target: MAZ, P56270
Method: as §1

[10] = target: MCAT, Q8IVS2
Method: as §1

[11] = target: MORF4L1, Q9UBU8
Method: as §1

[12] = target: MORF4L2, Q15014
Method: as §1

[13] = target: MPG, P29372
Method: as §1

[14] = target: MRM2, Q9UI43
Method: as §1

[15] = target: MRNIP, Q6NTE8
Method: as §1

[16] = target: MRRF, Q96E11
Method: as §1

[17] = target: MTHFD2, P13995
Method: as §1

[18] = target: NIFK, Q9BYG3
Method: as §1

[19] = target: NME4, O00746
Method: as §1

[20] = target: NOL7, Q9UMY1
Method: as §1

[21] = substrate: NONO, Q15233
Method: as §1

[22] = substrate: NOSIP, Q9Y314
Method: as §1

[23] = target: NSUN4, Q96CB9
Method: as §1

[24] = target: NTHL1, P78549
Method: as §1

[25] = target: NUDT16, Q96DE0
Method: as §1

[26] = target: NUDT16L1, Q9BRJ7
Method: as §1

[27] = target: NUFIP2, Q7Z417
Method: as §1

[28] = target: NUSAP1, Q9BXS6
Method: as §1

[29] = target: PAK4, O96013
Method: as §1

[30] = target: PARP2, Q9UGN5
Method: as §1

[31] = target: PCLAF, Q15004
Method: as §1

[32] = target: PDF, Q9HBH1
Method: as §1

[33] = target: PDLIM7, Q9NR12
Method: as §1

[34] = target: PIN1, Q13526
Method: as §1

[35] = target: PIN4, Q9Y237
Method: as §1

[36] = target: PINX1, Q96BK5
Method: as §1

[37] = target: PLK1, P53350
Method: as §1

[38] = target: POLDIP3, Q9BY77
Method: as §1

[39] = target: POLR1D
Method: as §1

[40] = substrate: PPIF, P30405
Method: as §1

[41] = target: PPIL2, Q13356
Method: as §1

[42] = target: PRRC2A, P48634
Method: as §1

[43] = target: PSPC1, Q8WXF1
Method: as §1

[44] = target: PSRC1, Q6PGN9
Method: as §1

[45] = target: PYCR1, P32322
Method: as §1

[46] = target: PYCR2, Q96C36
Method: as §1

[47] = target: RBIS, Q8N0T1
Method: as §1

[48] = target: RBM14, Q96PK6
Method: as §1

[49] = target: RBM27, Q9P2N5
Method: as §1

[50] = target: RBM33, Q96EV2
Method: as §1

[51] = target: RBMX, P38159
Method: as §1

[52] = target: RPUSD3, Q6P087
Method: as §1

[53] = target: SAFB, Q15424
Method: as §1

[54] = target: SAFB2, Q14151
Method: as §1

[55] = target: SEH1L, Q96EE3
Method: as §1

[56] = target: SERF2, P84101
Method: as §1

[57] = target: SF1, Q15637
Method: as §1

[58] = target: SFPQ, P23246
Method: as §1

[59] = target: SLTM, Q9NWH9
Method: as §1

[60] = target: SMNDC1, O75940
Method: as §1

MTEYWVPEI [RCBTB2]
PRISMA enrichment of interactor (log2) [1]: 7.8
PRISMA enrichment of interactor (log2) [2]: 5.97
PRISMA enrichment of interactor (log2) [3]: 6.02
PRISMA enrichment of interactor (log2) [4]: 6.61
PRISMA enrichment of interactor (log2) [5]: 3.92
PRISMA enrichment of interactor (log2) [6]: 4.91
PRISMA enrichment of interactor (log2) [7]: 6.5
PRISMA enrichment of interactor (log2) [8]: 3.83
PRISMA enrichment of interactor (log2) [9]: 6.04 ± 1.5
PRISMA enrichment of interactor (log2) [10]: 4.6
PRISMA enrichment of interactor (log2) [11]: 6.5
PRISMA enrichment of interactor (log2) [12]: 8.26
PRISMA enrichment of interactor (log2) [13]: 7.8
PRISMA enrichment of interactor (log2) [14]: 4.83
PRISMA enrichment of interactor (log2) [15]: 3.63
PRISMA enrichment of interactor (log2) [16]: 5.15
PRISMA enrichment of interactor (log2) [17]: 4.92
PRISMA enrichment of interactor (log2) [18]: 6.8
PRISMA enrichment of interactor (log2) [19]: 7.21
PRISMA enrichment of interactor (log2) [20]: 4.09
PRISMA enrichment of interactor (log2) [21]: 6.95
PRISMA enrichment of interactor (log2) [22]: 6.49
PRISMA enrichment of interactor (log2) [23]: 5.29
PRISMA enrichment of interactor (log2) [24]: 5.45
PRISMA enrichment of interactor (log2) [25]: 4.05
PRISMA enrichment of interactor (log2) [26]: 5.7
PRISMA enrichment of interactor (log2) [27]: 4.9
PRISMA enrichment of interactor (log2) [28]: 6.7
PRISMA enrichment of interactor (log2) [29]: 7.47
PRISMA enrichment of interactor (log2) [30]: 4.4
PRISMA enrichment of interactor (log2) [31]: 5.82
PRISMA enrichment of interactor (log2) [32]: 5.16
PRISMA enrichment of interactor (log2) [33]: 4.81
PRISMA enrichment of interactor (log2) [34]: 5.32
PRISMA enrichment of interactor (log2) [35]: 7.31
PRISMA enrichment of interactor (log2) [36]: 6.33
PRISMA enrichment of interactor (log2) [37]: 7
PRISMA enrichment of interactor (log2) [38]: 5.94
PRISMA enrichment of interactor (log2) [39]: 3.73
PRISMA enrichment of interactor (log2) [40]: 7.5
PRISMA enrichment of interactor (log2) [41]: 7.43
PRISMA enrichment of interactor (log2) [42]: 6.86
PRISMA enrichment of interactor (log2) [43]: 8.52
PRISMA enrichment of interactor (log2) [44]: 6.21
PRISMA enrichment of interactor (log2) [45]: 5.04
PRISMA enrichment of interactor (log2) [46]: 5.53
PRISMA enrichment of interactor (log2) [47]: 4.75
PRISMA enrichment of interactor (log2) [48]: 5.82
PRISMA enrichment of interactor (log2) [49]: 5.46
PRISMA enrichment of interactor (log2) [50]: 7.7
PRISMA enrichment of interactor (log2) [51]: 5.22
PRISMA enrichment of interactor (log2) [52]: 5.97
PRISMA enrichment of interactor (log2) [53]: 5.99
PRISMA enrichment of interactor (log2) [54]: 5.11
PRISMA enrichment of interactor (log2) [55]: 4.66
PRISMA enrichment of interactor (log2) [56]: 6.99
PRISMA enrichment of interactor (log2) [57]: 5.36
PRISMA enrichment of interactor (log2) [58]: 6.66
PRISMA enrichment of interactor (log2) [59]: 5.59
PRISMA enrichment of interactor (log2) [60]: 4.34
